{"sequences": {"note": "Amino acid sequences for entries named in this document (tags omitted). A change or cut given only in a name is not applied to a line headed by its entry.", "UniProt P51450": "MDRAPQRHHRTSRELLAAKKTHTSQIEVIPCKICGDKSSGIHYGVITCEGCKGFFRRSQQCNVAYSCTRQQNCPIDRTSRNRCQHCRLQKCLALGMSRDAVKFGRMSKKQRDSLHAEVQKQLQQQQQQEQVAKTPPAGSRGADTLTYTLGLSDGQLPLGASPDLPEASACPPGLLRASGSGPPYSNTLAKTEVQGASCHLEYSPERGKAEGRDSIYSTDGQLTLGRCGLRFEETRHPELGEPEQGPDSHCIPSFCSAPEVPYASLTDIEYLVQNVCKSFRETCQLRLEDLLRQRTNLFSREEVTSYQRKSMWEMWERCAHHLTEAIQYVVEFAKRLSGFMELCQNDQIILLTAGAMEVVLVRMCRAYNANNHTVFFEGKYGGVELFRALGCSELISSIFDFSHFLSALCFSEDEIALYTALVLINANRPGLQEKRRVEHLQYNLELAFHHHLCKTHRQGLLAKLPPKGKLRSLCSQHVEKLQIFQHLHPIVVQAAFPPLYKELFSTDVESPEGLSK"}, "source": "PubChem BioAssay AID2551", "about": "(National Center for Advancing Translational Sciences (NCATS), 2010)", "note": "Out of some 310,000 compounds screened, about 17,000 (5.5%) were called active. This list was built around the results that the source calls inconclusive (neither active nor inactive); the mix of calls is not that of the screen. Calls follow the shape of the dose curve; as a rule, active = well fitted inhibition curve with a large enough effect; inconclusive = small, poorly fitted or top-dose-only effect, or effect the other way; inactive = no such curve, though single readings can be large or run the other way. Potencies beside an inconclusive call are fits to weak or partial responses and may not hold up. % is scaled to controls: 0 for no effect and ±100 for the full control effect; potency is read from the fitted curve at half-maximal effect.", "data": [{"biological_target": "Nuclear receptor ROR-gamma (Mus musculus) (UniProt P51450)", "test": "qHTS for inhibitors of ROR gamma transcriptional activity; also: nearly all actives have a fitted effect of over 60% in size", "conditions": "Drosophila S2 Gal4-RORgamma UAS-luciferase reporter, 20 h; activity change, negative = inhibition: at 53.6 µM (top of the series)", "outline": "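Stably transfected Drosophila Schneider cells are the test system, with ROR gamma fused to Gal4 and luciferase under UAS control; luminescence is read after 20 hr of 700 uM copper sulfate induction at ambient temperature.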", "values": [{"smiles": "O=C(NCc1ccc2c(c1)OCO2)c1ccc2c(=O)n(C3CCCC3)c(=O)[nH]c2c1", "Potency": "inconclusive: 0.0794 µM [activator, full curve, poor fit]"}, {"smiles": "O=C(CSc1ncccn1)NC(=O)Nc1ccc2c(c1)OCCO2", "Potency": "inconclusive: 14.1 µM [activator, partial curve]"}, {"smiles": "Cc1ccc(C(=O)NCCN2C3=NC[C@H](C)N3C[C@H]2Cc2ccc(O)cc2)cc1Br", "activity change, negative = inhibition": "inactive: 0.438%"}, {"smiles": "COCCCNC(=O)C1CC(=O)N(CCc2ccc(F)cc2)C1", "note": "(stereo unspecified)", "activity change, negative = inhibition": "inactive: -0.388%"}, {"smiles": "COc1cc(/C=N/NC(=O)[C@H](Cc2c[nH]c3ccccc23)NC(=O)OCC(C)C)cc([N+](=O)[O-])c1O", "activity change, negative = inhibition": "inactive: -2.12%"}, {"smiles": "Cc1nn(Cc2ccc(C(=O)n3cccn3)o2)c(C)c1Br", "Potency": "inconclusive: 0.112 µM [inhibitor, full curve, poor fit]"}, {"smiles": "Oc1ccc2ccccc2c1C=Nc1ccc(N2CCOCC2)cc1", "Potency": "inconclusive: 25.1 µM [inhibitor, single point]"}, {"smiles": "Cc1ccc([N+](=O)[O-])cc1NC(=S)NCCc1ccccc1", "Potency": "active: 12.6 µM"}, {"smiles": "Cc1onc(-c2ccccc2)c1C(=O)NNC(=S)NC(=O)c1ccc2c(c1)OCO2", "Potency": "active: 2.51 µM"}, {"smiles": "CCC(CC)NC(=O)c1ccc(Cl)cc1", "activity change, negative = inhibition": "inactive: -2.99%"}, {"smiles": "CCn1c(CN(C)c2ccccc2)nc2ccccc21", "Potency": "active: 10 µM"}, {"smiles": "CCOc1ccc2nc(SC3CC(=O)N(c4ccccc4)C3=O)sc2c1", "note": "(stereo unspecified)", "Potency": "active: 10 µM"}, {"smiles": "CC1=Nc2cccc3cccc(c23)N1C", "Potency": "inconclusive: 15.8 µM [inhibitor, single point]"}, {"smiles": "NC(N)=NC(=O)Cc1c(Cl)cccc1Cl", "Potency": "inconclusive: 20 µM [activator, single point]"}, {"smiles": "COc1ccc(N2CCN(C(CNC(=O)OCc3ccccc3)c3ccco3)CC2)cc1", "note": "(stereo unspecified)", "Potency": "inconclusive: 14.1 µM [activator, single point]"}, {"smiles": "Cc1ccc(CCc2nnc(SCC(=O)Nc3cc(Cl)ccc3Cl)n2-c2ccccc2)o1", "Potency": "inconclusive: 17.8 µM [activator, single point]"}, {"smiles": "CC(C)(C)n1cnc2cc(NC(=O)c3ccco3)ccc21", "Potency": "inconclusive: 35.5 µM [inhibitor, single point]"}, {"smiles": "Cc1nc(Cl)nc(N(C)c2ccccc2)c1[N+](=O)[O-]", "activity change, negative = inhibition": "inactive: -27.3%"}, {"smiles": "Cc1cc(N)n(-c2cc(C)c3ccccc3n2)n1", "Potency": "inconclusive: 12.6 µM [inhibitor, partial curve]"}, {"smiles": "O=C(Cn1cc(C(=O)C(F)(F)F)c2ccccc21)NCc1ccco1", "Potency": "inconclusive: 15.8 µM [activator, partial curve]"}, {"smiles": "CCn1c(SCC(=O)NCC2CCCO2)nnc1-c1ccccc1", "note": "(stereo unspecified)", "Potency": "inconclusive: 0.0501 µM [activator, full curve, poor fit]"}, {"smiles": "CC(C)(C)NC(=O)C(c1ccc(O)cc1)N(C(=O)Cn1nnc(-c2ccc(F)cc2)n1)c1ccccc1F", "note": "(stereo unspecified)", "activity change, negative = inhibition": "inactive: 10%"}, {"smiles": "Cc1cccc(OCCCC(=O)NC2CCCCC2)c1", "Potency": "inconclusive: 11.2 µM [inhibitor, partial curve]"}, {"smiles": "Cc1ccc(O)c(N=Cc2ccc(C)s2)c1", "activity change, negative = inhibition": "inactive: -35.7%"}, {"smiles": "Cc1cccc(NC(=S)NCc2cccs2)c1", "Potency": "active: 6.31 µM"}, {"smiles": "CCN1CCN(C(=O)C2CCC(=O)N(CCCN3CCCC3=O)C2)CC1", "note": "(stereo unspecified)", "activity change, negative = inhibition": "inactive: -17.2%"}, {"smiles": "CC(C)(C)n1ncc2c(=O)n(CC(=O)NCc3ccco3)cnc21", "Potency": "inconclusive: 7.08 µM [inhibitor, full curve, poor fit]"}, {"smiles": "O=C(CSc1nnc(-c2cccnc2)n1-c1ccc(F)cc1)NCc1ccc2c(c1)OCO2", "Potency": "inconclusive: 11.2 µM [activator, partial curve, poor fit]"}, {"smiles": "CCN(CC)C(=O)Oc1cc2c(-c3cc4cccc(OC)c4o3)cc(=O)oc2cc1C", "activity change, negative = inhibition": "inactive: 9.71%"}, {"smiles": "CC(C)COc1ccc(CN=C(N)N=C(N)N)cc1Cl", "Potency": "inconclusive: 0.316 µM [inhibitor, single point]"}, {"smiles": "CC(C)[C@@H]1CC[C@@H](C)c2c(-c3ccccc3)n[nH]c21", "Potency": "active: 15.8 µM"}, {"smiles": "Fc1cc(F)c(C2SCCN2C(=S)Nc2cccc(C(F)(F)F)c2)c(F)c1", "note": "(stereo unspecified)", "Potency": "inconclusive: 25.1 µM [inhibitor, single point]"}, {"smiles": "Cc1ccc(C(=O)Cc2nnc(C)s2)cc1", "Potency": "inconclusive: 22.4 µM [inhibitor, single point]"}, {"smiles": "COc1ccccc1N1CCN(C(=O)c2cc3cc(Cl)ccc3[nH]2)CC1", "Potency": "inconclusive: 6.31 µM [activator, single point]"}, {"smiles": "Cc1cccc(COCC(Cc2ccccc2)N2CCN(C(=O)c3ccc(C(F)(F)F)cc3)CCC2=O)c1", "note": "(stereo unspecified)", "Potency": "inconclusive: 25.1 µM [inhibitor, single point]"}, {"smiles": "O=C(Nc1cc([N+](=O)[O-])ccc1N1CCCC1)c1ccccc1", "activity change, negative = inhibition": "inactive: -7.22%"}, {"smiles": "COc1ccc(CN2CCn3ncc(C(=O)Nc4cc(C)cc(C)c4)c3C2=O)cc1", "Potency": "inconclusive: 17.8 µM [inhibitor, single point]"}, {"smiles": "COC(=O)c1ccc2c(=O)n(Cc3ccc(C(=O)NCCCN4CCC(C)CC4)cc3)c(=S)[nH]c2c1", "Potency": "inconclusive: 35.5 µM [inhibitor, single point]"}, {"smiles": "Cc1ccsc1C(=O)N/N=C/C=C/c1ccccc1[N+](=O)[O-]", "Potency": "active: 5.62 µM"}, {"smiles": "COC(=O)c1c(C)[nH]c(C(=O)/C=C/c2ccccc2Cl)c1C", "Potency": "inconclusive: 5.62 µM [inhibitor, single point]"}, {"smiles": "O=C(c1cccs1)N1CCCC(N2CCN(c3cccc(C(F)(F)F)c3)CC2)C1", "note": "(stereo unspecified)", "Potency": "inconclusive: 14.1 µM [activator, single point]"}, {"smiles": "COc1ccccc1N1CCN(C(=O)Nc2cccc(Cl)c2)CC1", "Potency": "inconclusive: 35.5 µM [activator, single point]"}, {"smiles": "O=C(CCn1c(=O)[nH]c2ccsc2c1=O)N1CCN(c2ccc([N+](=O)[O-])cc2)CC1", "Potency": "inconclusive: 35.5 µM [activator, single point]"}, {"smiles": "COc1cc2[nH]c(=S)nc(NCCCOC(C)C)c2cc1OC", "Potency": "active: 15.8 µM"}, {"smiles": "Cc1cccc(-n2c(SCC(=O)N3CCCC3)nc3n[nH]c(C)c3c2=N)c1", "Potency": "inconclusive: 7.08 µM [activator, partial curve]"}, {"smiles": "COc1ccc(C(=O)N/C(N)=N/c2nc3ccccc3o2)cc1", "Potency": "active: 8.91 µM"}]}]}
